Article PMC12375108
These are yes or no findings as the source states them, for the method shown. Some entries that bind do so weakly or less than the wild type. Where a sequence is shown, tags or fusion partners need not be part of it.

Chains of the proteins cited; added tags and fusions are not shown. Residues count along the entry.
UniProt P11021, residues 19-654: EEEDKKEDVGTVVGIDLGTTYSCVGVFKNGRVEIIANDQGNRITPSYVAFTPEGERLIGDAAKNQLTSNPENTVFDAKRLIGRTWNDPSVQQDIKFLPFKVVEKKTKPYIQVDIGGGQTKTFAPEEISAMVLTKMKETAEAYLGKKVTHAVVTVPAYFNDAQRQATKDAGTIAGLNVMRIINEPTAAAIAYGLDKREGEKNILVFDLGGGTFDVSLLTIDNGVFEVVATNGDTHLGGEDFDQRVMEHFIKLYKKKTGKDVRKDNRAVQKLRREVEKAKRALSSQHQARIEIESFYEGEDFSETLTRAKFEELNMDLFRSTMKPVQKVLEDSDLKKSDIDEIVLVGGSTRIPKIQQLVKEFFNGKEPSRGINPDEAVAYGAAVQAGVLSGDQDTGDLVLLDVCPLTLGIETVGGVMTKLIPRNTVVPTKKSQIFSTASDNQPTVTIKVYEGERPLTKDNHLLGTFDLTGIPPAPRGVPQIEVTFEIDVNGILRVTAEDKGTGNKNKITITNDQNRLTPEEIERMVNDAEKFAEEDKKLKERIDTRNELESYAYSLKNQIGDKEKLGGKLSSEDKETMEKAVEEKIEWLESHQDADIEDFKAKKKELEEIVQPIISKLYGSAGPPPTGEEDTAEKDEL

T1: GST-tagged E. coli hinT H101N (E. coli) (UniProt P0ACE7)
T1 sequence: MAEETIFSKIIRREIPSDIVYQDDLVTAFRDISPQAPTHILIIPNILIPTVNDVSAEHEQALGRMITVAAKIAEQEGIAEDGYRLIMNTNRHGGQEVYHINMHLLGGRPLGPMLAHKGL

T2: GST-tagged E. coli hinT H101N E96S (E. coli) (UniProt P0ACE7)
T2 sequence: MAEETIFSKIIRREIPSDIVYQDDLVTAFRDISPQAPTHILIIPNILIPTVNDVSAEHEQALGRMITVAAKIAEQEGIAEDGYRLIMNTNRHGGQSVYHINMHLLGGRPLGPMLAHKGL

T3: AMPylated sodA (UniProt P00448)
T3 sequence (chain, AMPylated on tyrosine, residue not printed): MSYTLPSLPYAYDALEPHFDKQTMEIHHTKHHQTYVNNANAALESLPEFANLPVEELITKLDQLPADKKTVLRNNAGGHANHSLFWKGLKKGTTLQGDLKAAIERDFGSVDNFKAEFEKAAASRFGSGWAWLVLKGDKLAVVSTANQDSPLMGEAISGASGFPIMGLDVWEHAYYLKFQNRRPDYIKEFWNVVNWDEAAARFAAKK


Experiments:
AMPylated BiP = AMPylated BiP (UniProt P11021); test: far-Western, overlay or dot blot; far western: 0.5 μg/lane of AMPylated and non-AMPylated SodA, Rab1, Rac1 and BiP resolved by SDS-PAGE, membrane probed with 0.06 μg/ml GST-hinT homologs for 1 h at room temperature, detected with α-GST; both purified
[1] = biological target: T1, GST-tagged E. coli hinT H101N (E. coli); test: pull-down; 5 μg GST or GST-hinT on glutathione agarose, 2 μg AMPylated substrate, 1 h at 4 °C, TBSTX-100 with 1 mM DTT; α-AMP immunoblot; both purified
[2] = biological target: T2, GST-tagged E. coli hinT H101N E96S (E. coli); test: as above
AMPylated sodA = biological target: T3, AMPylated sodA; test: far-Western, overlay or dot blot; dot blot: 400 ng to 25 ng of AMPylated or non-AMPylated protein spotted on nitrocellulose, probed with GST or GST-hinT at 0.125 μg/mL in TBST for 1 h, detected with α-GST; both purified

binding [1]	binding [2]	binding (AMPylated sodA)	Binder	binding (AMPylated BiP)
–	–	–	GST-tagged H. sapiens hinT H112N (enzyme, UniProt P49773 1-126) MADEIAKAQVARPGGDTIFGKIIRKEIPAKIIFEDDRCLAFHDISPQAPTHFLVIPKKHISQISVAEDDDESLLGHLMIVGKKCAADLGLNKGYRMVVNEGSDGGQSVYHVNLHVLGGRQMHWPPG	no binding (tested: 0.06 μg/ml; 0.5 μg/lane)
binds	binds	–	AMPylated sodA (enzyme, UniProt P00448 1-206, AMPylated on tyrosine, residue not given) MSYTLPSLPYAYDALEPHFDKQTMEIHHTKHHQTYVNNANAALESLPEFANLPVEELITKLDQLPADKKTVLRNNAGGHANHSLFWKGLKKGTTLQGDLKAAIERDFGSVDNFKAEFEKAAASRFGSGWAWLVLKGDKLAVVSTANQDSPLMGEAISGASGFPIMGLDVWEHAYYLKFQNRRPDYIKEFWNVVNWDEAAARFAAKK	–
–	–	binds	GST-tagged E. coli hinT H101N (enzyme, UniProt P0ACE7 1-119) MAEETIFSKIIRREIPSDIVYQDDLVTAFRDISPQAPTHILIIPNILIPTVNDVSAEHEQALGRMITVAAKIAEQEGIAEDGYRLIMNTNRHGGQEVYHINMHLLGGRPLGPMLAHKGL	no binding (tested: 0.06 μg/ml; 0.5 μg/lane)
